Assay results as given in the supplement of paper PMC4604168 (melanoma cell lines).
Some of the results follow. Single values are uncertain, as repeats are few or missing.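 Imaging used 1,536-well plates; nuclei positive for cleaved PARP by antibody were divided by total DNA-stained nuclei to yield the apoptosis fraction. Doses for screening kept most cells viable, and cell lines differ markedly in resting and induced cleaved-PARP levels.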

system: WM1716; test: cleaved PARP positive nuclei fraction relative to DMSO control; melanoma cells; higher = more apoptosis; conditions: library dose: low library concentration; 72 h

| SMILES | cleaved PARP positive nuclei fraction [%] |
| --- | --- |
| Nc1ncn([C@H]2C[C@H](O)[C@@H](CO)O2)c(=O)n1 [decitabine] + O=C(Nc1cccc(Cl)c1)Nc1ncc(CCNc2ncnc3ccsc23)s1 [SNS314] (first compound 0.1 µM, partner dose 0.0008 µM) | 153 |
| CS(=O)(=O)CCNCc1ccc(-c2ccc3ncnc(Nc4ccc(OCc5cccc(F)c5)c(Cl)c4)c3c2)o1 [lapatinib] + COc1ccc2c(c1)CCC1C2CCC2(C)C(NCCCCCCN3C(=O)C=CC3=O)CCC12 [U73122] (first compound 0.8 µM, partner dose 0.4 µM) | 55.9 |
| Cc1cc(Nc2cc(N3CCN(C)CC3)nc(/C=C/c3ccccc3)n2)n[nH]1 + CCCCCCCCCCCC1=C(O)C(=O)C=C(O)C1=O [Embelin] (first compound 0.04 µM, partner dose 1.2 µM) | 47.8 |
| C[C@@H](Oc1cc(-c2cnn(C3CCNCC3)c2)cnc1N)c1c(Cl)ccc(F)c1Cl [Crizotinib] + Cc1cc([N+](=O)[O-])ccc1NS(=O)(=O)c1cc(Cl)ccc1Cl [FH535] (first compound 0.2 µM, partner dose 1 µM) | 140 |
| Nc1ccn([C@@H]2O[C@H](CO)[C@@H](O)C2(F)F)c(=O)n1 [gemcitabine] + O=C(Nc1cccc(Cl)c1)Nc1ncc(CCNc2ncnc3ccsc23)s1 [SNS314] (first compound 0.0004 µM, partner dose 0.0008 µM) | 28.5 |
| O=C(O)[C@@H]1[O][Sb](=[O])([O][Sb]2(=[O])[O][C@H]([C@H](O)CO)[C@H](O)[C@H](C(=O)O)[O]2)[O][C@H]([C@H](O)CO)[C@@H]1O (some centres undefined) [stibogluconate] + CC(C)CCN1c2nc(Nc3cc(F)c(O)c(F)c3)ncc2N(C)C(=O)C1C [BID1870] (first compound 2 µM, partner dose 0.2 µM) | 62 |
| C=C(c1ccc(C(=O)O)cc1)c1cc2c(cc1C)C(C)(C)CCC2(C)C [Bexarotene] + COc1ccc2c(c1)CCC1C2CCC2(C)C(NCCCCCCN3C(=O)C=CC3=O)CCC12 [U73122] (first compound 2 µM, partner dose 0.4 µM) | 133 |
| C=C(c1ccc(C(=O)O)cc1)c1cc2c(cc1C)C(C)(C)CCC2(C)C [Bexarotene] + Oc1nc(-c2ccc(C(F)(F)F)cc2)nc2c1CSCC2 [XAV939] (first compound 2 µM, partner dose 2 µM) | 117 |
| CS(=O)(=O)CCNCc1ccc(-c2ccc3ncnc(Nc4ccc(OCc5cccc(F)c5)c(Cl)c4)c3c2)o1 [lapatinib] + NC(=O)Nc1cc(-c2cccc(F)c2)sc1C(=O)N[C@H]1CCCNC1 [AZD7762] (first compound 0.8 µM, partner dose 0.02 µM) | 129 |
| O=C(O)[C@@H]1[O][Sb](=[O])([O][Sb]2(=[O])[O][C@H]([C@H](O)CO)[C@H](O)[C@H](C(=O)O)[O]2)[O][C@H]([C@H](O)CO)[C@@H]1O (some centres undefined) [stibogluconate] + CN(NC(=O)CC(=O)NN(C)C(=S)c1ccccc1)C(=S)c1ccccc1 [STA4783] (first compound 2 µM, partner dose 0.006 µM) | 211 |
| CCCS(=O)(=O)Nc1ccc(F)c(C(=O)c2c[nH]c3ncc(Cl)cc23)c1F + COc1ccc(COc2ccc(Cc3cnc(N)nc3N)cc2OC)cc1 [GW2580] (first compound 0.08 µM, partner dose 1 µM) | 47.5 |
| Nc1ncn([C@H]2C[C@H](O)[C@@H](CO)O2)c(=O)n1 [decitabine] + CCc1ccc(CCOc2ccc(CC3SC(=O)NC3=O)cc2)nc1 [pioglitazone] (first compound 0.1 µM, partner dose 2 µM) | 49.3 |
| CN1CCN(c2ccc3nc(-c4c(N)c5c(F)cccc5[nH]c4=O)[nH]c3c2)CC1 [Dovitinib] + CN(NC(=O)CC(=O)NN(C)C(=S)c1ccccc1)C(=S)c1ccccc1 [STA4783] (first compound 0.1 µM, partner dose 0.006 µM) | 123 |
| Nc1ccn([C@@H]2O[C@H](CO)[C@@H](O)C2(F)F)c(=O)n1 [gemcitabine] + O=c1cc(-c2cccc3c2Sc2ccccc2S3)oc(N2CCOCC2)c1 [KU55933] (first compound 0.0004 µM, partner dose 1 µM) | 30.1 |
| CCCS(=O)(=O)Nc1ccc(F)c(C(=O)c2c[nH]c3ncc(Cl)cc23)c1F + COc1cc(Nc2ncc(F)c(Nc3ccc4c(n3)NC(=O)C(C)(C)O4)n2)cc(OC)c1OC [Tamatinib] (first compound 0.08 µM, partner dose 0.4 µM) | 83.9 |
| Cn1c(=O)n(-c2ccc(C(C)(C)C#N)cc2)c2c3cc(-c4cnc5ccccc5c4)ccc3ncc21 + Oc1cc(-c2nc(-c3ccccc3)[nH]c2-c2ccncc2)ccc1Cl [L779450] (first compound 0.004 µM, partner dose 0.2 µM) | 189 |
| CN1CCN(c2ccc3nc(-c4c(N)c5c(F)cccc5[nH]c4=O)[nH]c3c2)CC1 [Dovitinib] + COc1ccc(COc2ccc(Cc3cnc(N)nc3N)cc2OC)cc1 [GW2580] (first compound 0.1 µM, partner dose 1 µM) | 140 |
| C=C(c1ccc(C(=O)O)cc1)c1cc2c(cc1C)C(C)(C)CCC2(C)C [Bexarotene] + CCc1ccc(CCOc2ccc(CC3SC(=O)NC3=O)cc2)nc1 [pioglitazone] (first compound 2 µM, partner dose 2 µM) | 47.3 |
| Cc1cc(Nc2cc(N3CCN(C)CC3)nc(/C=C/c3ccccc3)n2)n[nH]1 + CC(C)CCN1c2nc(Nc3cc(F)c(O)c(F)c3)ncc2N(C)C(=O)C1C [BID1870] (first compound 0.04 µM, partner dose 0.2 µM) | 56.1 |
| CN1CCN(c2ccc3nc(-c4c(N)c5c(F)cccc5[nH]c4=O)[nH]c3c2)CC1 [Dovitinib] + CN(C)S(=O)(=O)c1ccc2c(c1)/C(=C/c1cc3c([nH]1)CCCC3)C(=O)N2 [SU6656] (first compound 0.1 µM, partner dose 0.4 µM) | 105 |
| CC(C)C[C@H](NC(=O)[C@H](Cc1ccccc1)NC(=O)c1cnccn1)B(O)O [Bortezomib] + COc1cc2ncnc(Nc3ccc(Oc4ccccc4)cc3)c2cc1OC [SrcI1] (first compound 0.001 µM, partner dose 2 µM) | 221 |
| CC(C)C[C@H](NC(=O)[C@H](Cc1ccccc1)NC(=O)c1cnccn1)B(O)O [Bortezomib] + C[C@@H]1CCN(C(=O)CC#N)C[C@@H]1N(C)c1ncnc2[nH]ccc12 [CP690550] (first compound 0.001 µM, partner dose 1 µM) | 968 |
| CNC(=O)c1cc(Oc2ccc(NC(=O)Nc3ccc(Cl)c(C(F)(F)F)c3)cc2)ccn1 [sorafenib] + c1cc(-c2cnn3cc(-c4ccc(OCCN5CCCCC5)cc4)cnc23)ccn1 [Dorsomorphin] (first compound 0.4 µM, partner dose 0.4 µM) | 78.8 |
| O=C(O)c1ccc2c(c1)nc(Nc1cccc(Cl)c1)c1ccncc12 + O=C(Nc1cccc(Cl)c1)Nc1ncc(CCNc2ncnc3ccsc23)s1 [SNS314] (first compound 0.4 µM, partner dose 0.0008 µM) | 192 |
| CCCS(=O)(=O)Nc1ccc(F)c(C(=O)c2c[nH]c3ncc(Cl)cc23)c1F + CCc1ccc(CCOc2ccc(CC3SC(=O)NC3=O)cc2)nc1 [pioglitazone] (first compound 0.08 µM, partner dose 2 µM) | 80.1 |
| O=C(O)c1ccc2c(c1)nc(Nc1cccc(Cl)c1)c1ccncc12 + CC(C)(C)c1cnc(CSc2cnc(NC(=O)C3CCNCC3)s2)o1 [SNS-032] (first compound 0.4 µM, partner dose 0.01 µM) | 81.4 |
| CN1CCN(c2ccc3nc(-c4c(N)c5c(F)cccc5[nH]c4=O)[nH]c3c2)CC1 [Dovitinib] + NC(=O)Nc1cc(-c2cccc(F)c2)sc1C(=O)N[C@H]1CCCNC1 [AZD7762] (first compound 0.1 µM, partner dose 0.02 µM) | 126 |
| O=C(O)[C@@H]1[O][Sb](=[O])([O][Sb]2(=[O])[O][C@H]([C@H](O)CO)[C@H](O)[C@H](C(=O)O)[O]2)[O][C@H]([C@H](O)CO)[C@@H]1O (some centres undefined) [stibogluconate] + OCCn1cc(-c2cnc3nnn(Cc4ccc5ncccc5c4)c3n2)cn1 [PF04217903] (first compound 2 µM, partner dose 1 µM) | 102 |
| CS(=O)(=O)CCNCc1ccc(-c2ccc3ncnc(Nc4ccc(OCc5cccc(F)c5)c(Cl)c4)c3c2)o1 [lapatinib] + COc1ccc(COc2ccc(Cc3cnc(N)nc3N)cc2OC)cc1 [GW2580] (first compound 0.8 µM, partner dose 1 µM) | 61 |

Some values from the results shown:
CS(=O)(=O)CCNCc1ccc(-c2ccc3ncnc(Nc4ccc(OCc5cccc(F)c5)c(Cl)c4)c3c2)o1 [lapatinib] + COc1ccc(COc2ccc(Cc3cnc(N)nc3N)cc2OC)cc1 [GW2580] (first compound 0.8 µM, partner dose 1 µM) – cleaved PARP positive nuclei fraction [%]: 61
C=C(c1ccc(C(=O)O)cc1)c1cc2c(cc1C)C(C)(C)CCC2(C)C [Bexarotene] + Oc1nc(-c2ccc(C(F)(F)F)cc2)nc2c1CSCC2 [XAV939] (first compound 2 µM, partner dose 2 µM) – cleaved PARP positive nuclei fraction [%]: 117
